Assay results taken from article PMC9065199.
Results are given in words; binding and its absence hold for the method and conditions named. For some of these results: Binding seen in cells or lysates may run through a third protein. Some results given as binding are weak or reduced against the parent protein; the word gives no strength. For some of these results: Sequences can lack the tags named with a protein.

Protein sequences, listed by entry. Tags and fused reporters are not part of them. Residues count along the entry.
UniProt O95299, residues 36-355: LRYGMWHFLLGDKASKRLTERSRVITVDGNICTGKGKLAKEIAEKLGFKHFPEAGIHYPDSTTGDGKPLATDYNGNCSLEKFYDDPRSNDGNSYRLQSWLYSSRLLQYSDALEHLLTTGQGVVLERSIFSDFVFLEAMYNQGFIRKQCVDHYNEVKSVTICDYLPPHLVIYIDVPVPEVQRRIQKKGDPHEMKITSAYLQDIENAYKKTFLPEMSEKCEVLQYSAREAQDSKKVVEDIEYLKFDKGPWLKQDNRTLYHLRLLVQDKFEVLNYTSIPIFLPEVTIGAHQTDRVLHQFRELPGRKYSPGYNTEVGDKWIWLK

Assays:
AGK peptide 2 (93M-120I) = molecular target: T1, AGK peptide 2 (93M-120I) (UniProt Q53H12); assay: ELISA; synthetic AGK peptides labelled with biotin at the N-terminal, tested against NDUFS2 and NDUFA10 (n = 6)
T1 sequence (peptide, biotin at the N-terminal): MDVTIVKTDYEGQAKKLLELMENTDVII

AGK peptide 1 (59Q-92G) = molecular target: T2, AGK peptide 1 (59Q-92G) (UniProt Q53H12); assay: as above
T2 sequence (peptide, biotin at the N-terminal): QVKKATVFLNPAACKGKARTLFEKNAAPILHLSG

[1] = molecular target: T3, Acylglycerol kinase (AGK), full-length, Flag-tagged (UniProt Q53H12); assay: co-IP; lysates of HEK293T cells transfected with NDUFS2-HA, NDUFA10-HA and AGK-Flag or AGK-1-Flag
T3 sequence: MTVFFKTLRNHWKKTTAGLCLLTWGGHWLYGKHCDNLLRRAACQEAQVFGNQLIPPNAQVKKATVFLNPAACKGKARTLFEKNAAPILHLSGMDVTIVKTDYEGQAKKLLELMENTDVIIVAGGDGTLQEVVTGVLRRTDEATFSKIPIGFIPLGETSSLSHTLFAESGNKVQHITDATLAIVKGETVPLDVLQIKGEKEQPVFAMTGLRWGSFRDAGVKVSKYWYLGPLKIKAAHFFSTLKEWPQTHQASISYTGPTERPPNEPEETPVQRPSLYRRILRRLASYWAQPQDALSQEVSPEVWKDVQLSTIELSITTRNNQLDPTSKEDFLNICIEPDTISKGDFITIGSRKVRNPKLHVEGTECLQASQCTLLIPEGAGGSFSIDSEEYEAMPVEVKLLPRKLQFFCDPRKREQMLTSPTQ

[2] = molecular target: T4, AGK-1 (1-202P), N-terminal truncated form of AGK, Flag-tagged (UniProt Q53H12); assay: as above
T4 sequence: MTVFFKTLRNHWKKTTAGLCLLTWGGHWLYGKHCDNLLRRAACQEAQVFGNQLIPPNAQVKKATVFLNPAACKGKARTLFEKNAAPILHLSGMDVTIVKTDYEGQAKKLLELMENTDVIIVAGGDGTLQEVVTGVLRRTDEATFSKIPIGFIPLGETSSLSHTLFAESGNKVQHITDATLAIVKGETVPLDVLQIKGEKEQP

| Substance | binding (AGK peptide 2 (93M-120I)) | binding (AGK peptide 1 (59Q-92G)) | binding [1] | binding [2] |
| --- | --- | --- | --- | --- |
| NDUFA10 (as used in the peptide ELISA) (from UniProt O95299 36-355) | binds | binds | – | – |
| NDUFA10-HA (from UniProt O95299 36-355) | – | – | binds | binds |
